{
  "sequences": {"note": "Sequences of proteins named here, by UniProt entry; tags and fusion partners are left off.", "UniProt Q676U5": "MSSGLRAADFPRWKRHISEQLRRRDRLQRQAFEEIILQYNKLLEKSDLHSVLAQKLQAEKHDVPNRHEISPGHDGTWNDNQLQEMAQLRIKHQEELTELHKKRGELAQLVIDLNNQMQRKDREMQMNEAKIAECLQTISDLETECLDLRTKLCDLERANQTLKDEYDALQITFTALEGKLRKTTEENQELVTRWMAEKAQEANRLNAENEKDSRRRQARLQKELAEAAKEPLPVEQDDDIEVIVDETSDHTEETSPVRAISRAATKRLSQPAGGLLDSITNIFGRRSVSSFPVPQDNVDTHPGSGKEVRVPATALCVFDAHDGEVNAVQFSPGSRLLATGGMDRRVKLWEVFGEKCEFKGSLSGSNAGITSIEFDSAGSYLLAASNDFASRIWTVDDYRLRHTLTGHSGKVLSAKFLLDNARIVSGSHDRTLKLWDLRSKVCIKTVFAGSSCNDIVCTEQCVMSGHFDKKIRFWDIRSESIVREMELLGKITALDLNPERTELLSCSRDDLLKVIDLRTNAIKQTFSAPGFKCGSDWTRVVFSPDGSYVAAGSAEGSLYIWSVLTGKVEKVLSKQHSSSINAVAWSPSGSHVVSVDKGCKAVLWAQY"},
  "source": "paper doi:10.1101/2020.09.01.277764",
  "molecules": {"B1": {"name": "human Rabaptin5 (1–862) fused to LexA (protein, UniProt Q15276 1-862)", "chain": "MAQPGPASQPDVSLQQRVAELEKINAEFLRAQQQLEQEFNQKRAKFKELYLAKEEDLKRQNAVLQAAQDDLGHLRTQLWEAQAEMENIKAIATVSENTKQEAIDEVKRQWREEVASLQAVMKETVRDYEHQFHLRLEQERTQWAQYRESAEREIADLRRRLSEGQEEENLENEMKKAQEDAEKLRSVVMPMEKEIAALKDKLTEAEDKIKELEASKVKELNHYLEAEKSCRTDLEMYVAVLNTQKSVLQEDAEKLRKELHEVCHLLEQERQQHNQLKHTWQKANDQFLESQRLLMRDMQRMEIVLTSEQLRQVEELKKKDQEDDEQQRLNKRKDHKKADVEEEIKIPVVCALTQEESSAQLSNEEEHLDSTRGSVHSLDAGLLLPSGDPFSKSDNDMFKDGLRRAQSTDSLGTSGSLQSKALGYNYKAKSAGNLDESDFGPLVGADSVSENFDTASLGSLQMPSGFMLTKDQERAIKAMTPEQEETASLLSSVTQGMESAYVSPSGYRLVSETEWNLLQKEVHNAGNKLGRRCDMCSNYEKQLQGIQIQEAETRDQVKKLQLMLRQANDQLEKTMKDKQELEDFIKQSSEDSSHQISALVLRAQASEILLEELQQGLSQAKRDVQEQMAVLMQSREQVSEELVRLQKDNDSLQGKHSLHVSLQQAEDFILPDTTEALRELVLKYREDIINVRTAADHVEEKLKAEILFLKEQIQAEQCLKENLEETLQLEIENCKEEIASISSLKAELERIKVEKGQLESTLREKSQQLESLQEIKISLEEQLKKETAAKATVEQLMFEEKNKAQRLQTELDVSEQVQRDFVKLSQTLQVQLERIRQADSLERIRAILNDTKLTDINQLPET"}, "B2": {"name": "FIP200 residues 281–439 (smallest interacting prey fragment of the screen) (domain or fragment, UniProt Q8TDY2 281-439)", "chain": "SCQSTVHQQDETTIDTKDGDLPFFNVSLLDWINVQDRPNDVESLVRKCFDSMSRLDPRIIRPFIAECRQTIAKLDNQNMKAIKGLEDRLYALDQMIASCGRLVNEQKELAQGFLANQKRAENLKDASVLPDLCLSHANQLMIMLQNHRKLLDIKQKCTT"}, "B3": {"name": "FIP200 residues 257–444 fused to the Gal4 activation domain (domain or fragment, UniProt Q8TDY2 257-444)", "chain": "SFPKSVEHVSPDTADAESGKEIRESCQSTVHQQDETTIDTKDGDLPFFNVSLLDWINVQDRPNDVESLVRKCFDSMSRLDPRIIRPFIAECRQTIAKLDNQNMKAIKGLEDRLYALDQMIASCGRLVNEQKELAQGFLANQKRAENLKDASVLPDLCLSHANQLMIMLQNHRKLLDIKQKCTTAKQEL"}, "B4": {"name": "Rabaptin5 (endogenous) (protein, UniProt Q15276 1-862)", "chain": "B1 chain"}},
  "key": {"[1]": {"target": "T1, myc-tagged Rabaptin5 triple-alanine mutant (Y507A/W515A/L518A) (human) (UniProt Q15276)", "T1 sequence": "B1 chain with Y507A, W515A, L518A", "assay": "co-IP"}, "[2]": {"target": "T2, human Rabaptin5 (1–862) fused to LexA (human) (UniProt Q15276)", "T2 sequence": "B1 chain", "assay": "two-hybrid"}, "[3]": {"target": "T3, Rabaptin5 coiled-coil domain CC2-1 (residues 547–666) fused to LexA (human) (UniProt Q15276)", "T3 sequence": "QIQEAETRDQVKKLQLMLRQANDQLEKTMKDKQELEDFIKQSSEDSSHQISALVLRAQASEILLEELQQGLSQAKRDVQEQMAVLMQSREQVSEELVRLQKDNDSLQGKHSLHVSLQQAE", "assay": "two-hybrid"}, "[4]": {"target": "FIP200 (endogenous) (human (endogenous in HeLa and HEK293A)) (UniProt Q8TDY2)", "assay": "co-IP"}, "[5]": {"target": "full-length FIP200-mCherry (human) (UniProt Q8TDY2)", "assay": "co-IP"}},
  "note": "Substitutions are numbered along the chain they refer to. No constants are given. Whether binding was seen depends on the method and setting. For part of these data: In cells and extracts the contact can be indirect. Some results given as binding are weak or reduced against the parent protein; the word gives no strength. For part of these data: Sequences can lack the tags named with a protein.",
  "data": [
    {"molecule": "ATG16L1 (endogenous) (from UniProt Q676U5 1-607)", "values": [
      {"measurement": "binding", "setting": "[1]", "value": "no binding"}
    ]},
    {"molecule": "B1", "values": [
      {"measurement": "binding", "setting": "[2]", "value": "binds"}
    ]},
    {"molecule": "B2", "values": [
      {"measurement": "binding", "setting": "[2]", "value": "binds"}
    ]},
    {"molecule": "B3", "values": [
      {"measurement": "binding", "setting": "[3]", "value": "binds"}
    ]},
    {"molecule": "B4", "values": [
      {"measurement": "binding", "setting": "[4]", "value": "binds"},
      {"measurement": "binding", "setting": "[5]", "value": "binds"}
    ]}
  ]
}
